# Assay results reported in the supplement of paper PMC8728848.
# The list shows a part of the results.
# B1: GS13971A-bth-447-22-447 (Bacteroides thetaiotaomicron) (protein)
# chain: EDVDNERSKGMFSASQSGFSTIEVYDLGPLNKIDLSIAKAGLEDTGGTVTFSVEQSLLDSLNNADGTSYQLLPPECYTIENATYSVSPGGDRRVTGGSLVYDPHKIYNLCGFDELKYVLPLRVSSTGTPMNSDRTATLYGFIVKEAIVRLASTGGDFVVEGGTTTSPMNLDTEISFENEWDLTTSFATKGADYVDNYNSANSTYYIPLPSDFYTLPDVTIAKGKTTGGSAISLLGETLPPGNYLLPVSLGGLSGQGDASINIDKETVANYFVIKQGGPINRDHWTVTANTEEKTGEVSAAYPHNGQTISLIDGEINTFWHSKWQGGEVAPPYEIILDMGKENSVSQLGLIARQNALTSMNLEIYAGDDGETWNLIGKYFFDGSIKTEQMVPVKACDARWIRIYIPTLGSGSSVGHLAEIYVYGTDK
# Experiments:
# Assay in all cases: glycan array binding signal (z-score within array); higher = stronger binding
# Conditions in all cases: glycan notation: IUPAC condensed, linker removed
# [1] = target: Fuc(a1-2)[Gal(a1-4)]Gal(b1-4)GlcNAc
# How it was run: (§1)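 Glycan array data were curated from 3228 arrays in the Consortium for Functional Glycomics database and kept only where the protein sequence was available. Glycan names were converted to IUPAC-condensed notation, and columns mapping to the same glycan were averaged. The binding signal is a within-array Z-score, averaged across arrays of the same protein sequence at different concentrations or buffers and across linkers. Negative Z-scores can be read as non-binding.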
# [2] = target: Fuc(a1-2)[GalNAc(a1-3)]Gal
# How it was run: as §1
# [3] = target: Fuc(a1-2)[GalNAc(a1-3)]Gal(b1-3)GalNAc(a1-3)[Fuc(a1-2)]Gal(b1-4)GlcNAc
# How it was run: as §1
# [4] = target: Fuc(a1-2)[GalNAc(a1-3)]Gal(b1-3)GalNAc(b1-3)Gal(a1-4)Gal(b1-4)Glc
# How it was run: as §1
# [5] = target: Fuc(a1-2)[GalNAc(a1-3)]Gal(b1-3)GlcNAc
# How it was run: as §1
# [6] = target: Fuc(a1-2)[GalNAc(a1-3)]Gal(b1-3)GlcNAc(b1-2)Man(a1-3)[Fuc(a1-2)[GalNAc(a1-3)]Gal(b1-3)GlcNAc(b1-2)Man(a1-6)]Man(b1-4)GlcNAc(b1-4)GlcNAc
# How it was run: as §1
# [7] = target: Fuc(a1-2)[GalNAc(a1-3)]Gal(b1-3)GlcNAc(b1-2)Man(a1-3)[Fuc(a1-2)[GalNAc(a1-3)]Gal(b1-3)GlcNAc(b1-2)Man(a1-6)]Man(b1-4)GlcNAc(b1-4)[Fuc(a1-6)]GlcNAc
# How it was run: as §1
# [8] = target: Fuc(a1-2)[GalNAc(a1-3)]Gal(b1-3)GlcNAc(b1-3)GalNAc
# How it was run: as §1
# [9] = target: Fuc(a1-2)[GalNAc(a1-3)]Gal(b1-3)GlcNAc(b1-6)GalNAc
# How it was run: as §1
# [10] = target: Fuc(a1-2)[GalNAc(a1-3)]Gal(b1-4)Glc
# How it was run: as §1
# [11] = target: Fuc(a1-2)[GalNAc(a1-3)]Gal(b1-4)GlcNAc
# How it was run: as §1
# [12] = target: Fuc(a1-2)[GalNAc(a1-3)]Gal(b1-4)GlcNAc(b1-2)Man
# How it was run: as §1
# [13] = target: Fuc(a1-2)[GalNAc(a1-3)]Gal(b1-4)GlcNAc(b1-2)Man(a1-3)[Fuc(a1-2)[GalNAc(a1-3)]Gal(b1-4)GlcNAc(b1-2)Man(a1-6)]Man(b1-4)GlcNAc(b1-4)GlcNAc
# How it was run: as §1
# [14] = target: Fuc(a1-2)[GalNAc(a1-3)]Gal(b1-4)GlcNAc(b1-2)Man(a1-3)[Fuc(a1-2)[GalNAc(a1-3)]Gal(b1-4)GlcNAc(b1-2)Man(a1-6)]Man(b1-4)GlcNAc(b1-4)[Fuc(a1-6)]GlcNAc
# How it was run: as §1
# [15] = target: Fuc(a1-2)[GalNAc(a1-3)]Gal(b1-4)GlcNAc(b1-3)Gal(b1-4)GlcNAc
# How it was run: as §1
# [16] = target: Fuc(a1-2)[GalNAc(a1-3)]Gal(b1-4)GlcNAc(b1-3)Gal(b1-4)GlcNAc(b1-3)Gal(b1-4)GlcNAc
# How it was run: as §1
# [17] = target: Fuc(a1-2)[GalNAc(a1-3)]Gal(b1-4)GlcNAc(b1-3)GalNAc
# How it was run: as §1
# [18] = target: Fuc(a1-2)[GalNAc(a1-3)]Gal(b1-4)GlcNAc(b1-3)[Fuc(a1-2)[GalNAc(a1-3)]Gal(b1-4)GlcNAc(b1-6)]GalNAc
# How it was run: as §1
# [19] = target: Fuc(a1-2)[GalNAc(a1-3)]Gal(b1-4)GlcNAc(b1-6)GalNAc
# How it was run: as §1
# [20] = target: Fuc(a1-2)[GalNAc(a1-3)]Gal(b1-4)[Fuc(a1-3)]GlcNAc
# How it was run: as §1
# [21] = target: Fuc(a1-2)[GalNAc(a1-3)]Gal(b1-4)[Fuc(a1-3)]GlcNAc(b1-3)GalNAc
# How it was run: as §1
# [22] = target: Fuc(a1-2)[GalNAc(a1-4)]Gal(b1-4)GlcNAc
# How it was run: as §1
# [23] = target: Fuc(a1-2)[GalNAc(b1-3)]Gal
# How it was run: as §1
# [24] = target: Fuc(a1-3)GlcNAc
# How it was run: as §1
# [25] = target: Fuc(a1-3)[Gal(b1-4)]Glc6S
# How it was run: as §1
# [26] = target: Fuc(a1-3)[Gal(b1-4)]GlcNAc
# How it was run: as §1
# [27] = target: Fuc(a1-3)[Gal(b1-4)]GlcNAc(b1-2)Man
# How it was run: as §1
# [28] = target: Fuc(a1-3)[Gal(b1-4)]GlcNAc(b1-2)Man(a1-3)[Fuc(a1-3)[Gal(b1-4)]GlcNAc(b1-2)Man(a1-6)]Man(b1-4)GlcNAc(b1-4)GlcNAc
# How it was run: as §1
# [29] = target: Fuc(a1-3)[Gal(b1-4)]GlcNAc(b1-2)Man(a1-3)[Fuc(a1-3)[Gal(b1-4)]GlcNAc(b1-2)Man(a1-6)]Man(b1-4)GlcNAc(b1-4)[Fuc(a1-6)]GlcNAc
# How it was run: as §1
# [30] = target: Fuc(a1-3)[Gal(b1-4)]GlcNAc(b1-3)Gal(b1-3)[Fuc(a1-4)]GlcNAc
# How it was run: as §1
# [31] = target: Fuc(a1-3)[Gal(b1-4)]GlcNAc(b1-3)Gal(b1-4)[Fuc(a1-3)]GlcNAc
# How it was run: as §1
# [32] = target: Fuc(a1-3)[Gal(b1-4)]GlcNAc(b1-3)Gal(b1-4)[Fuc(a1-3)]GlcNAc(b1-3)Gal(b1-4)[Fuc(a1-3)]GlcNAc
# How it was run: as §1
# [33] = target: Fuc(a1-3)[Gal(b1-4)]GlcNAc(b1-3)GalNAc
# How it was run: as §1
# [34] = target: Fuc(a1-3)[Gal(b1-4)]GlcNAc(b1-6)GalNAc
# How it was run: as §1
# [35] = target: Fuc(a1-3)[Gal(b1-4)]GlcNAc(b1-6)[Gal(b1-3)GlcNAc(b1-3)]Gal(b1-4)Glc
# How it was run: as §1
# [36] = target: Fuc(a1-3)[Gal(b1-4)]GlcNAc6S
# How it was run: as §1
# [37] = target: Fuc(a1-3)[Gal3S(b1-4)]Glc
# How it was run: as §1
# [38] = target: Fuc(a1-3)[Gal3S(b1-4)]GlcNAc
# How it was run: as §1
binder,measurement,setting,value
B1,glycan array binding signal (z-score),[1],1.4
same,glycan array binding signal (z-score),[2],-0.411
same,glycan array binding signal (z-score),[3],-0.632
same,glycan array binding signal (z-score),[4],-0.418
same,glycan array binding signal (z-score),[5],-0.659
same,glycan array binding signal (z-score),[6],-0.704
same,glycan array binding signal (z-score),[7],-1.44
same,glycan array binding signal (z-score),[8],0.307
same,glycan array binding signal (z-score),[9],0.803
same,glycan array binding signal (z-score),[10],-0.164
same,glycan array binding signal (z-score),[11],-0.506
same,glycan array binding signal (z-score),[12],-0.648
same,glycan array binding signal (z-score),[13],0.044
same,glycan array binding signal (z-score),[14],-1.35
same,glycan array binding signal (z-score),[15],-0.622
same,glycan array binding signal (z-score),[16],-0.196
same,glycan array binding signal (z-score),[17],-1.24
same,glycan array binding signal (z-score),[18],-0.4
same,glycan array binding signal (z-score),[19],0.153
same,glycan array binding signal (z-score),[20],-0.663
same,glycan array binding signal (z-score),[21],0.236
same,glycan array binding signal (z-score),[22],-0.331
same,glycan array binding signal (z-score),[23],-0.502
same,glycan array binding signal (z-score),[24],-1.12
same,glycan array binding signal (z-score),[25],-0.214
same,glycan array binding signal (z-score),[26],0.548
same,glycan array binding signal (z-score),[27],0.16
same,glycan array binding signal (z-score),[28],1.48
same,glycan array binding signal (z-score),[29],-0.249
same,glycan array binding signal (z-score),[30],-0.356
same,glycan array binding signal (z-score),[31],0.491
same,glycan array binding signal (z-score),[32],-0.284
same,glycan array binding signal (z-score),[33],0.484
same,glycan array binding signal (z-score),[34],0.414
same,glycan array binding signal (z-score),[35],-1.51
same,glycan array binding signal (z-score),[36],-0.084
same,glycan array binding signal (z-score),[37],0.389
same,glycan array binding signal (z-score),[38],-0.59

# Two entries from above, set out differently.
binder	measurement	setting	value
B1	glycan array binding signal (z-score)	[9]	0.803
same	glycan array binding signal (z-score)	[18]	-0.4
